Source: PubChem BioAssay AID540275 (National Center for Advancing Translational Sciences (NCATS), 2011)
About 620 (0.19%) of roughly 320,000 compounds were called active. Inconclusive means that the source gave no clear call. Such entries were picked first, then a sample of the others. Rule as the data show it: active = activation above about 80%; inconclusive = between about 30% and that limit; inactive = weaker than that.

Protein sequences, listed by entry. Tags and fused reporters are not part of them.
UniProt Q8NER1, whole entry, looked up: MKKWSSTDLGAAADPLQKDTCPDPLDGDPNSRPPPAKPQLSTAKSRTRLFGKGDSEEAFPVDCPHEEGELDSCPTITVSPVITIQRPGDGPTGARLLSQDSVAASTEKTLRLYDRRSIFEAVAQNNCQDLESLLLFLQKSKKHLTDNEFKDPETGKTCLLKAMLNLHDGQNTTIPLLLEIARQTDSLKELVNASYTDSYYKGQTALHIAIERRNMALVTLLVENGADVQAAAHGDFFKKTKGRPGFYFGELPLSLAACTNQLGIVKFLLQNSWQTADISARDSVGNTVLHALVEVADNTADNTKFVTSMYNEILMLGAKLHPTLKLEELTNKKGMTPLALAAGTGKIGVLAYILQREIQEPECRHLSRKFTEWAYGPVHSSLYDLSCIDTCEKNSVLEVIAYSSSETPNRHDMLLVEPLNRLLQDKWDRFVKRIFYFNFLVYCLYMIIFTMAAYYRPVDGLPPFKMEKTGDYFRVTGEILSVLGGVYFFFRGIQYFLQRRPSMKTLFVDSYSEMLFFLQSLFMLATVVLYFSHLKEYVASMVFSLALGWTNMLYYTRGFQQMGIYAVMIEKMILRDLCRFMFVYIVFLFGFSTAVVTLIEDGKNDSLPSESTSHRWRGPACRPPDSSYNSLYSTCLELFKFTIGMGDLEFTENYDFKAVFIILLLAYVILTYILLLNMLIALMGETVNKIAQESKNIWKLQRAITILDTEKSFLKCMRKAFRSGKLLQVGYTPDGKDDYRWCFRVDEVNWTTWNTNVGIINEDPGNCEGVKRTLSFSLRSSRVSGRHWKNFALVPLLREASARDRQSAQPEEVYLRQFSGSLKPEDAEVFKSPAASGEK

The molecules below were run against Transient receptor potential cation channel subfamily V member 1 (Homo sapiens) (UniProt Q8NER1) (assay: HTS Assay for Compounds that Act as Agonists of the Vanilloid Receptor 1). Settings: TRPV1-expressing cells, Fluo-8 calcium influx, agonist mode; at 8.33 µM, hits give high values.
Procedure, shortened: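 Cells expressing TRPV1 were dye-loaded with Fluo-8 and read kinetically: 10 s baseline, 3 min after compound (agonist portion), then 2 min after EC20 capsaicin (allosteric enhancer portion). Calcium-bound dye fluorescence at 480/520 nm.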
Also: 0% is about no effect.

With `O=c1c(O)c(-c2cccs2)oc2ccc(Cl)cc12` as the molecule, how does the activation read?
The activation was inconclusive: 80%.

How did the activation turn out when `Cc1cccc(N(CC(=O)N/N=C/c2cc([N+](=O)[O-])ccc2Cl)S(C)(=O)=O)c1C` was run?
Its activation is inactive: -2.33%.

With `O=C(Cc1sc(-c2ccccc2)nc1-c1ccccc1)Nc1ccccc1` as the molecule, how does the activation read?
Its activation is inconclusive: 51.5%.

How did the activation turn out when `Cc1cccc(Nc2nc(-c3ccccc3)c(C(=O)Nc3cccnc3)s2)c1` was run?
The activation was inactive: 15.5%.

For `CCOc1cc(NC(=S)NCC2CCCO2)c(OCC)cc1NC(=O)c1ccccc1F` (centres undefined), which activation is on record?
Its activation is inconclusive: 35.3%.

`Cc1ccccc1CC(=O)NC1CCCCCC1` was tested. Which activation did it give?
The activation was inconclusive: 41.5%.

Which activation does the source give for `CCCCc1ccc(NC(=O)CC(C)C)cc1` here?
The activation was inconclusive: 41.1%.

Which activation does the source give for `Cc1cccc(N2CCN(C(=O)Cn3cccc3)CC2)c1C` here?
The activation was inconclusive: 45.4%.

With `CCOc1cc(CNc2ccc(N(C)C)cc2)cc(Br)c1OCC(=O)NC(C)(C)C` as the molecule, how does the activation read?
Its activation is inconclusive: 39.2%.

How did the activation turn out when `Cc1cc(N2CCN(c3ccccc3Cl)CC2)n2cc(-c3ccccc3)nc2n1` was run?
Its activation is inconclusive: 71%.

How did the activation turn out when `C=CCOc1ccc(/C=C/C(=O)Nc2ccc(C(=O)NC)cc2)cc1` was run?
Its activation is inconclusive: 76.8%.

`NC(=O)C1CCN(C(=O)COc2ccc3c(c2)oc(=O)c2ccccc23)CC1` was tested. Which activation did it give?
The activation was inactive: -1.05%.

For `Cc1ccc(NC(=O)C2CCCN(C(=O)c3ccc(Cl)cc3)C2)cc1` (centres undefined), which activation is on record?
Its activation is inconclusive: 45.7%.

How did the activation turn out when `COc1cccc(/C=N/NC(=O)CNC(=O)c2cccs2)c1O` was run?
The activation was inactive: -2.59%.

For `CCOP(=O)(OCC)c1nc(-c2ccc(F)cc2)oc1NCc1ccccc1`, which activation is on record?
Its activation is inconclusive: 54.6%.

`Cc1ccc(CNC(=O)C2CCCN2C(=O)Nc2cccc(Cl)c2)cc1` (centres undefined) was tested. Which activation did it give?
Its activation is inconclusive: 47.2%.

For `CC(C)C[C@H](NC(=O)[C@H](Cc1ccccc1)n1c(=O)[nH]c2ccccc2c1=O)C(=O)N1CCC(C(=O)O)CC1`, which activation is on record?
The activation was inactive: -4.98%.

With `CCC(C)c1ccc(NC(=S)NCc2cccs2)cc1` (centres undefined) as the molecule, how does the activation read?
The activation was inconclusive: 68.4%.

How did the activation turn out when `CCN(Cc1ccccc1)S(=O)(=O)c1cc2[nH]c(=O)c(=O)[nH]c2cc1C` was run?
The activation was inactive: -1.55%.

How did the activation turn out when `CCOC(=O)CCn1nc(-c2ccc(C)cc2)c2ccccc2c1=O` was run?
The activation was inactive: 20.3%.

Which activation does the source give for `COc1ccc2cc(C(=O)Nc3ccc(O)cc3)sc(=O)c2c1OC` here?
Its activation is inconclusive: 46.3%.

Which activation does the source give for `Cc1cc(OCC(=O)Nc2ccc(CN3CCCCC3)cc2)ccc1Cl` here?
Its activation is inactive: 0.562%.

For `Cc1ncc(CSCC(=O)Nc2cc(C(F)(F)F)ccc2Cl)c(CO)c1O`, which activation is on record?
The activation was inconclusive: 42.7%.

How did the activation turn out when `O=C(c1ccc(Cl)c(S(=O)(=O)N2CCCCCC2)c1)N1CCCC(C(F)(F)F)C1` (centres undefined) was run?
Its activation is inconclusive: 32.5%.

How did the activation turn out when `Cc1cc(C)c(CN2CCC(n3nccc3NC(=O)c3ccccc3Cl)CC2)cc1C` was run?
Its activation is inactive: -1.54%.

With `O=C(NCc1nnc2c(C(F)(F)F)cc(Cl)cn12)c1ccc2c(c1)OCO2` as the molecule, how does the activation read?
Its activation is inactive: -2.19%.

`CC1(C)Cc2ccccc2/C(=C/C(=O)c2ccccc2)N1` was tested. Which activation did it give?
The activation was inconclusive: 73.1%.

`CC(C)c1ccc(/C=N/NC(=O)c2cccc(Cl)c2)cc1` was tested. Which activation did it give?
Its activation is inconclusive: 79%.

Which activation does the source give for `COc1cccc(CC2(CO)CCCN(Cc3ccccc3Cl)C2)c1` (centres undefined) here?
The activation was inactive: 24.1%.

For `CC(C)(C)OC(=O)N1CCC(CNC(=O)c2ccc(F)cc2F)CC1`, which activation is on record?
Its activation is inconclusive: 30.1%.

Which activation does the source give for `COc1cc(NC(=O)c2cc3ccccc3o2)ccc1NC(=O)c1ccco1` here?
The activation was inactive: 0.939%.

`CCOC(=O)Nc1ccc(Oc2ccccc2)cc1` was tested. Which activation did it give?
Its activation is inconclusive: 33.1%.

How did the activation turn out when `COc1ccc(NC(=O)N2CCC(C(=O)c3ccc(F)cc3)CC2)cc1` was run?
The activation was inconclusive: 60.7%.

For `O=C(/C(N=Nc1cccc([N+](=O)[O-])c1)=C(/O)c1ccc(Br)cc1)C(F)(F)F`, which activation is on record?
The activation was inactive: 15.3%.

With `O=C(CSC1=NCCS1)N1CCN(c2ccc(Cl)cc2)CC1` as the molecule, how does the activation read?
The activation was inconclusive: 40.5%.

Which activation does the source give for `CCC(C)(C)n1nnnc1CN(Cc1cc2cc(OC)ccc2[nH]c1=O)C1CCCC1` here?
Its activation is inconclusive: 40.7%.

How did the activation turn out when `CC(=O)c1cccc(NC(=O)C2CCN(S(=O)(=O)c3ccc(F)cc3)CC2)c1` was run?
The activation was inconclusive: 30%.

`OCCNc1nc(N2CCN(c3ccccc3)CC2)nc2ccccc12` was tested. Which activation did it give?
The activation was inconclusive: 44.1%.

How did the activation turn out when `COc1cc(/C=N\NC(C)=O)ccc1OC/C=C/c1ccccc1` was run?
Its activation is inactive: 0.831%.

With `Cc1cccc(N(C)S(=O)(=O)c2ccc(-c3cnc(C4CC4)o3)cc2)c1` as the molecule, how does the activation read?
The activation was inconclusive: 30%.

`CCn1c(=O)c(CCC(=O)NCCN2CCOCC2)c(C)c2c(C)nn(-c3cccc(C)c3)c21` was tested. Which activation did it give?
Its activation is inconclusive: 50.2%.

`CC(=O)NCCc1ccc(S(=O)(=O)N2CCN(c3nc(-c4ccccc4)c(C)s3)CC2)cc1` was tested. Which activation did it give?
The activation was inconclusive: 51.9%.

For `COc1c(C(=O)Nc2ccc3[nH]c(=O)[nH]c3c2)cc2ccccc2c1Br`, which activation is on record?
The activation was inconclusive: 53.5%.

How did the activation turn out when `COc1ccc(S(=O)(=O)N(CC(=O)NCC2CCCO2)Cc2ccccc2)cc1C` (centres undefined) was run?
Its activation is inconclusive: 37.3%.

How did the activation turn out when `COc1cc(C(=O)NCC2CCCO2)ccc1OCc1ccccc1Cl` (centres undefined) was run?
The activation was inconclusive: 65.6%.

How did the activation turn out when `Cc1ccccc1OCCCC(=O)Nc1ccc2c(c1)OCO2` was run?
Its activation is inconclusive: 42%.

`COc1ccc(NC(=O)CN(C)C(=O)c2ccc(-c3cccc(C(F)(F)F)c3)o2)cc1` was tested. Which activation did it give?
The activation was inconclusive: 74.1%.

For `CC(C)(C)OC(=O)N[C@@H](C(=O)OC(C)(C)C)c1ccc(C(F)(F)F)cc1`, which activation is on record?
Its activation is inconclusive: 45.6%.

With `COc1ccc(CN(Cc2cccn2C)S(=O)(=O)c2cccc(C(F)(F)F)c2)cc1` as the molecule, how does the activation read?
Its activation is inactive: 13.5%.

With `CCCc1cc(=O)oc2c3c(cc(OCC(=O)N4CCC[C@H]4C(=O)O)c12)OC(C)(C)CC3` as the molecule, how does the activation read?
The activation was inactive: 2.78%.

`Cc1c(Cl)cccc1NC(=O)c1ccc(-n2ccnc2)nc1` was tested. Which activation did it give?
The activation was inconclusive: 41.8%.

For `O=C(N/N=C/c1ccc(O)cc1)c1csc2ccccc12`, which activation is on record?
The activation was inconclusive: 30%.

For `Cc1cc(Cl)c(OCCCSc2nc(C)cc(=O)[nH]2)c(Br)c1`, which activation is on record?
The activation was inconclusive: 38.2%.

For `O=C(NC1=NCCS1)c1ccc(-c2ccc(Cl)cc2)o1`, which activation is on record?
Its activation is inconclusive: 51%.

For `O=C(CN1C(=O)c2cccnc2Oc2ccc(Cl)cc21)N1CCCC1`, which activation is on record?
The activation was inactive: -1.73%.

Which activation does the source give for `O=C(CSc1nnc(Cc2ccccc2)n1-c1cccc(Cl)c1)N1CCOCC1` here?
The activation was inconclusive: 54.1%.

`Cc1cc(C)n2nc(SCC(=O)c3cc(C)n(-c4cc(C)on4)c3C)nc2n1` was tested. Which activation did it give?
The activation was inactive: -2.41%.

Which activation does the source give for `O=C(Nc1ccccc1)Nc1ccccc1Br` here?
Its activation is inconclusive: 47.7%.

How did the activation turn out when `COc1ccc2oc(C(=O)OC(C)C(=O)NC3(C#N)CCCCC3)c(C)c2c1` (centres undefined) was run?
The activation was inconclusive: 60.1%.

How did the activation turn out when `Cc1oc(-c2ccc3c(c2)OCCO3)cc1C(=O)NCC(=O)O` was run?
The activation was inconclusive: 30.5%.

`O=C(c1cc(COc2c(F)cccc2F)on1)N1CCCCCC1` was tested. Which activation did it give?
The activation was inconclusive: 39.6%.

`CCc1cccc(CC)c1-n1c(-c2cccnc2)n[nH]c1=S` was tested. Which activation did it give?
Its activation is inactive: -0.481%.

Which activation does the source give for `CCCn1nc(NC(=O)C2CCCO2)c2cc3cccc(C)c3nc21` (centres undefined) here?
Its activation is inconclusive: 64.1%.

For `CCN(C(=O)CSc1nnc(-c2ccco2)n1CC)c1c(N)n(Cc2ccccc2)c(=O)[nH]c1=O`, which activation is on record?
The activation was inactive: -1.94%.

Which activation does the source give for `Cn1nccc1C(=O)N1CCc2c([nH]c3ccccc23)C1c1ccc(F)cc1` (centres undefined) here?
The activation was inconclusive: 45.2%.

`O=C(N/N=C/c1ccco1)c1ccc(NC(=O)C2CCCCC2)cc1` was tested. Which activation did it give?
Its activation is inconclusive: 41%.

Which activation does the source give for `CCOc1cc(C(N)=O)cc(Br)c1OC` here?
Its activation is inactive: -4.11%.

With `COc1ccc2nc3c(cc2c1)c(NC(=O)c1cccs1)nn3CC(C)C` as the molecule, how does the activation read?
Its activation is inconclusive: 73.5%.

With `Cc1cc2cc(CNC(=O)Cc3ccc([N+](=O)[O-])cc3)ccc2[nH]1` as the molecule, how does the activation read?
Its activation is inconclusive: 32.5%.

Which activation does the source give for `COCCNC(=S)NCCc1ccc(Cl)cc1Cl` here?
The activation was inconclusive: 42.5%.

How did the activation turn out when `COC(=O)c1sc(S(=O)(=O)N2CCC(C)CC2)c(C(=O)OC)c1C` was run?
Its activation is inconclusive: 34.9%.

With `CCOC(=O)CSc1nnc(-c2ccccc2NC(=O)c2ccccc2)o1` as the molecule, how does the activation read?
The activation was inactive: 18.3%.

How did the activation turn out when `O=C(CN1CCN(c2ccccn2)CC1)Nc1ccc([N+](=O)[O-])cc1C(=O)Nc1ccccc1F` was run?
The activation was inactive: -3.52%.

With `CC1CC(C)CN(CCCNC(=O)c2csc3c2CCCC3)C1` (centres undefined) as the molecule, how does the activation read?
The activation was inactive: 3.39%.

For `CCNC(=O)NC(=O)CN(C)c1ccccc1`, which activation is on record?
Its activation is inactive: 2.54%.

How did the activation turn out when `c1ccc(N/N=C(\Cc2nc3ccccc3[nH]2)c2ccccc2)cc1` was run?
Its activation is inconclusive: 49%.

`O=C(Nc1cccc(C(=O)Nc2ccc(Br)cc2)c1)c1ccccc1` was tested. Which activation did it give?
Its activation is inconclusive: 32.1%.

`Cc1ccc(C)c(N2CCN(C(=O)C3CCC3)CC2)c1` was tested. Which activation did it give?
Its activation is inconclusive: 32.4%.

How did the activation turn out when `CN(C(=O)c1cccc(NC(=O)Cc2ccccc2)c1)c1ccccc1` was run?
Its activation is inconclusive: 32.8%.

How did the activation turn out when `C=CCN=c1scc(-c2ccco2)n1/N=C/c1ccc(O)c(O)c1O` was run?
The activation was inactive: -0.74%.

How did the activation turn out when `COc1cccc(C(=S)N2CCCC2)c1OC` was run?
Its activation is inactive: 5.64%.

Which activation does the source give for `Cc1cc(=O)[nH]c2c(C)c(N)ccc12` here?
Its activation is inactive: -0.437%.

`CCc1cc2cc(C)cc(C)c2[nH]c1=S` was tested. Which activation did it give?
Its activation is inactive: 3.75%.

For `Cc1cc(C(=O)N/N=C/c2ccc(O)c([N+](=O)[O-])c2)c(C)n1-c1ccc(F)cc1`, which activation is on record?
Its activation is inconclusive: 60.7%.

For `COc1ccc(CCC(=O)N2CCN(c3ccc([N+](=O)[O-])cc3)CC2)cc1OC`, which activation is on record?
The activation was inconclusive: 44.9%.

With `O=C(Nc1ccc(S(=O)(=O)Nc2nccs2)cc1)c1ccc(S(=O)(=O)N2CCOCC2)cc1` as the molecule, how does the activation read?
The activation was inconclusive: 40.9%.

With `Cc1cccc(N2CCN(C(c3ccccc3)c3nnnn3CC3CCCO3)CC2)c1C` (centres undefined) as the molecule, how does the activation read?
The activation was inconclusive: 34.2%.

`CCC(Sc1nc(N)c(NC(=O)c2ccc(OC)cc2)c(=O)[nH]1)C(=O)O` (centres undefined) was tested. Which activation did it give?
The activation was inactive: 0.499%.

Which activation does the source give for `O=C(Nc1ccncc1)C1CCN(S(=O)(=O)c2ccccc2C(F)(F)F)CC1` here?
Its activation is active: 82.8%.
